# Reference: the supplement of paper PMC8728848
# The list shows a part of the results.
# Tests used:
# Test in all cases: glycan array binding signal (z-score within array); higher = stronger binding
# Conditions in all cases: glycan notation: IUPAC condensed, linker removed
# [1] = target: Gal(b1-3)[Fuc(a1-4)]GlcNAc(b1-3)Gal(b1-4)[Fuc(a1-3)]GlcNAc
# In short: (§1)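 Columns mapping to the same glycan were averaged after glycan names were converted to IUPAC-condensed notation. The data come from 3228 arrays in the Consortium for Functional Glycomics database, limited to those with an available protein sequence. Binding is reported as a within-array Z-score averaged across arrays of one protein sequence and across linkers.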
# [2] = target: Gal(b1-3)[Fuc(a1-4)]GlcNAc(b1-6)GalNAc
# In short: as §1
# [3] = target: Gal(b1-3)[GlcNAc(b1-6)]GalNAc
# In short: as §1
# [4] = target: Gal(b1-3)[Neu5Ac(a2-6)]GalNAc
# In short: as §1
# [5] = target: Gal(b1-3)[Neu5Ac(a2-6)]GlcNAc(b1-4)Gal(b1-4)Glc
# In short: as §1
# [6] = target: Gal(b1-3)[Neu5Ac(a2-6)]GlcNAc(b1-6)Gal(b1-4)Glc
# In short: as §1
# [7] = target: Gal(b1-3)[Neu5Ac(b2-6)]GalNAc
# In short: as §1
# Gal(b1-4)Gal = target: Gal(b1-4)Gal
# In short: as §1
# [8] = target: Gal(b1-4)GalNAc(a1-3)[Fuc(a1-2)]Gal(b1-4)GlcNAc
# In short: as §1
# [9] = target: Gal(b1-4)GalNAc(b1-3)[Fuc(a1-2)]Gal(b1-4)GlcNAc
# In short: as §1
# Gal(b1-4)Glc = target: Gal(b1-4)Glc
# In short: as §1
# Gal(b1-4)Glc6S = target: Gal(b1-4)Glc6S
# In short: as §1
# Gal(b1-4)GlcNAc = target: Gal(b1-4)GlcNAc
# In short: as §1
# [10] = target: Gal(b1-4)GlcNAc(a1-6)Gal(b1-4)GlcNAc
# In short: as §1
# Gal(b1-4)GlcNAc(b1-2)Man = target: Gal(b1-4)GlcNAc(b1-2)Man
# In short: as §1
# [11] = target: Gal(b1-4)GlcNAc(b1-2)Man(a1-3)Man(b1-4)GlcNAc(b1-4)GlcNAc
# In short: as §1
# [12] = target: Gal(b1-4)GlcNAc(b1-2)Man(a1-3)[Gal(b1-4)GlcNAc(b1-2)Man(a1-6)]Man(b1-4)GlcNAc(b1-4)GlcNAc
# In short: as §1
# [13] = target: Gal(b1-4)GlcNAc(b1-2)Man(a1-3)[Gal(b1-4)GlcNAc(b1-2)Man(a1-6)]Man(b1-4)GlcNAc(b1-4)[Fuc(a1-6)]GlcNAc
# In short: as §1
# [14] = target: Gal(b1-4)GlcNAc(b1-2)Man(a1-3)[Gal(b1-4)GlcNAc(b1-2)Man(a1-6)][Gal(b1-4)GlcNAc(b1-4)]Man(b1-4)GlcNAc(b1-4)[Fuc(a1-6)]GlcNAc
# In short: as §1
# [15] = target: Gal(b1-4)GlcNAc(b1-2)Man(a1-3)[Gal(b1-4)GlcNAc(b1-2)Man(a1-6)][GlcNAc(b1-4)]Man(b1-4)GlcNAc(b1-4)[Fuc(a1-6)]GlcNAc
# In short: as §1
# [16] = target: Gal(b1-4)GlcNAc(b1-2)Man(a1-3)[Gal(b1-4)GlcNAc(b1-2)][GlcNAc(b1-4)]Man(b1-4)GlcNAc(b1-4)GlcNAc
# In short: as §1
# [17] = target: Gal(b1-4)GlcNAc(b1-2)Man(a1-3)[GlcNAc(b1-2)Man(a1-6)]Man(b1-4)GlcNAc(b1-4)GlcNAc
# In short: as §1
# [18] = target: Gal(b1-4)GlcNAc(b1-2)Man(a1-3)[GlcNAc(b1-4)][Gal(b1-4)GlcNAc(b1-2)Man(a1-6)]Man(b1-4)GlcNAc(b1-4)GlcNAc
# In short: as §1
# [19] = target: Gal(b1-4)GlcNAc(b1-2)Man(a1-3)[Man(a1-6)]Man(b1-4)GlcNAc(b1-4)GlcNAc
# In short: as §1
# [20] = target: Gal(b1-4)GlcNAc(b1-2)Man(a1-6)Man(b1-4)GlcNAc(b1-4)GlcNAc
# In short: as §1
# [21] = target: Gal(b1-4)GlcNAc(b1-2)Man(a1-6)[GlcNAc(b1-2)Man(a1-3)]Man(b1-4)GlcNAc(b1-4)GlcNAc
# In short: as §1
# [22] = target: Gal(b1-4)GlcNAc(b1-2)Man(a1-6)[Man(a1-3)]Man(b1-4)GlcNAc(b1-4)GlcNAc
# In short: as §1
# [23] = target: Gal(b1-4)GlcNAc(b1-2)[Gal(b1-4)GlcNAc(b1-4)]Man(a1-3)[Gal(b1-4)GlcNAc(b1-2)Man(a1-6)]Man(b1-4)GlcNAc(b1-4)GlcNAc
# In short: as §1
# [24] = target: Gal(b1-4)GlcNAc(b1-2)[Gal(b1-4)GlcNAc(b1-4)]Man(a1-3)[Gal(b1-4)GlcNAc(b1-2)[Gal(b1-4)GlcNAc(b1-6)]Man(a1-6)]Man(b1-4)GlcNAc(b1-4)GlcNAc
# In short: as §1
# [25] = target: Gal(b1-4)GlcNAc(b1-2)[Gal(b1-4)GlcNAc(b1-4)]Man(a1-3)[GlcNAc(b1-4)][Gal(b1-4)GlcNAc(b1-2)Man(a1-6)]Man(b1-4)GlcNAc(b1-4)GlcNAc
# In short: as §1
# [26] = target: Gal(b1-4)GlcNAc(b1-2)[Gal(b1-4)GlcNAc(b1-4)]Man(a1-3)[GlcNAc(b1-4)][Gal(b1-4)GlcNAc(b1-2)[Gal(b1-4)GlcNAc(b1-6)]Man(a1-6)]Man(b1-4)GlcNAc(b1-4)GlcNAc
# In short: as §1
# [27] = target: Gal(b1-4)GlcNAc(b1-2)[Gal(b1-4)GlcNAc(b1-4)]Man(a1-3)[GlcNAc(b1-4)][Gal(b1-4)GlcNAc(b1-2)[Gal(b1-4)GlcNAc(b1-6)]Man(a1-6)]Man(b1-4)GlcNAc(b1-4)[Fuc(a1-6)]GlcNAc
# In short: as §1
# [28] = target: Gal(b1-4)GlcNAc(b1-2)[Gal(b1-4)GlcNAc(b1-6)]Man(a1-6)[Gal(b1-4)GlcNAc(b1-2)Man(a1-3)]Man(b1-4)GlcNAc(b1-4)GlcNAc
# In short: as §1
# [29] = target: Gal(b1-4)GlcNAc(b1-2)[Gal(b1-4)GlcNAc(b1-6)]Man(a1-6)[Gal(b1-4)GlcNAc(b1-2)Man(a1-3)]Man(b1-4)GlcNAc(b1-4)[Fuc(a1-6)]GlcNAc
# In short: as §1
# [30] = target: Gal(b1-4)GlcNAc(b1-2)[Gal(b1-4)GlcNAc(b1-6)]Man(a1-6)[GlcNAc(b1-4)][Gal(b1-4)GlcNAc(b1-2)Man(a1-3)]Man(b1-4)GlcNAc(b1-4)GlcNAc
# In short: as §1
# [31] = target: Gal(b1-4)GlcNAc(b1-2)[Gal(b1-4)GlcNAc(b1-6)]Man(a1-6)[GlcNAc(b1-4)][Gal(b1-4)GlcNAc(b1-2)[Gal(b1-4)GlcNAc(b1-4)]Man(a1-3)]Man(b1-4)GlcNAc(b1-4)[Fuc(a1-6)]GlcNAc
# In short: as §1
# [32] = target: Gal(b1-4)GlcNAc(b1-3)Gal(b1-3)GalNAc
# In short: as §1
# [33] = target: Gal(b1-4)GlcNAc(b1-3)Gal(b1-3)GlcNAc
# In short: as §1
# [34] = target: Gal(b1-4)GlcNAc(b1-3)Gal(b1-4)Glc
# In short: as §1
# [35] = target: Gal(b1-4)GlcNAc(b1-3)Gal(b1-4)GlcNAc
# In short: as §1
# [36] = target: Gal(b1-4)GlcNAc(b1-3)Gal(b1-4)GlcNAc(b1-2)Man(a1-3)[Gal(b1-4)GlcNAc(b1-3)Gal(b1-4)GlcNAc(b1-2)Man(a1-6)]Man(b1-4)GlcNAc(b1-4)GlcNAc
# In short: as §1
# [37] = target: Gal(b1-4)GlcNAc(b1-3)Gal(b1-4)GlcNAc(b1-2)Man(a1-3)[Gal(b1-4)GlcNAc(b1-3)Gal(b1-4)GlcNAc(b1-2)Man(a1-6)]Man(b1-4)GlcNAc(b1-4)[Fuc(a1-6)]GlcNAc
# In short: as §1
# [38] = target: Gal(b1-4)GlcNAc(b1-3)Gal(b1-4)GlcNAc(b1-2)[Gal(b1-4)GlcNAc(b1-3)Gal(b1-4)GlcNAc(b1-6)]Man(a1-6)[Gal(b1-4)GlcNAc(b1-3)Gal(b1-4)GlcNAc(b1-2)Man(a1-3)]Man(b1-4)GlcNAc(b1-4)GlcNAc
# In short: as §1
# [39] = target: Gal(b1-4)GlcNAc(b1-3)Gal(b1-4)GlcNAc(b1-2)[Gal(b1-4)GlcNAc(b1-3)Gal(b1-4)GlcNAc(b1-6)]Man(a1-6)[Gal(b1-4)GlcNAc(b1-3)Gal(b1-4)GlcNAc(b1-2)Man(a1-3)]Man(b1-4)GlcNAc(b1-4)[Fuc(a1-6)]GlcNAc
# In short: as §1
# [40] = target: Gal(b1-4)GlcNAc(b1-3)Gal(b1-4)GlcNAc(b1-3)Gal(b1-4)GlcNAc
# In short: as §1
binder,measurement,setting,value
"Gal 10 (Homo sapiens), Q05315 (protein) MSLLPVPYTEAASLSTGSTVTIKGRPLVCFLNEPYLQVDFHTEMKEESDIVFHFQVCFGRRVVMNSREYGAWKQQVESKNMPFQDGQEFELSISVLPDKYQVMVNGQSSYTFDHRIKPEAVKMVQVWRDISLTKFNVSYLKR",glycan array binding signal (z-score),[1],0.069
same,glycan array binding signal (z-score),[2],0.642
same,glycan array binding signal (z-score),[3],-0.202
same,glycan array binding signal (z-score),[4],-0.442
same,glycan array binding signal (z-score),[5],-0.744
same,glycan array binding signal (z-score),[6],-0.538
same,glycan array binding signal (z-score),[7],0.059
same,glycan array binding signal (z-score),Gal(b1-4)Gal,0.086
same,glycan array binding signal (z-score),[8],0.152
same,glycan array binding signal (z-score),[9],-1.26
same,glycan array binding signal (z-score),Gal(b1-4)Glc,-0.206
same,glycan array binding signal (z-score),Gal(b1-4)Glc6S,-0.347
same,glycan array binding signal (z-score),Gal(b1-4)GlcNAc,-0.261
same,glycan array binding signal (z-score),[10],0.29
same,glycan array binding signal (z-score),Gal(b1-4)GlcNAc(b1-2)Man,-0.206
same,glycan array binding signal (z-score),[11],-0.452
same,glycan array binding signal (z-score),[12],-0.112
same,glycan array binding signal (z-score),[13],-0.548
same,glycan array binding signal (z-score),[14],0.399
same,glycan array binding signal (z-score),[15],-0.722
same,glycan array binding signal (z-score),[16],0.708
same,glycan array binding signal (z-score),[17],-0.365
same,glycan array binding signal (z-score),[18],-0.57
same,glycan array binding signal (z-score),[19],-0.774
same,glycan array binding signal (z-score),[20],0.316
same,glycan array binding signal (z-score),[21],0.321
same,glycan array binding signal (z-score),[22],0.817
same,glycan array binding signal (z-score),[23],-0.513
same,glycan array binding signal (z-score),[24],0.721
same,glycan array binding signal (z-score),[25],-0.708
same,glycan array binding signal (z-score),[26],1.01
same,glycan array binding signal (z-score),[27],-0.793
same,glycan array binding signal (z-score),[28],0.78
same,glycan array binding signal (z-score),[29],0.643
same,glycan array binding signal (z-score),[30],-0.127
same,glycan array binding signal (z-score),[31],-0.369
same,glycan array binding signal (z-score),[32],-0.642
same,glycan array binding signal (z-score),[33],-0.431
same,glycan array binding signal (z-score),[34],-0.335
same,glycan array binding signal (z-score),[35],0.264
same,glycan array binding signal (z-score),[36],0.012
same,glycan array binding signal (z-score),[37],2.05
same,glycan array binding signal (z-score),[38],1.43
same,glycan array binding signal (z-score),[39],2.23
same,glycan array binding signal (z-score),[40],-1.01

# 2 neighbouring entries out of the list so far, for reference:
binder,measurement,setting,value
"Gal 10 (Homo sapiens), Q05315 (protein) MSLLPVPYTEAASLSTGSTVTIKGRPLVCFLNEPYLQVDFHTEMKEESDIVFHFQVCFGRRVVMNSREYGAWKQQVESKNMPFQDGQEFELSISVLPDKYQVMVNGQSSYTFDHRIKPEAVKMVQVWRDISLTKFNVSYLKR",glycan array binding signal (z-score),[12],-0.112
same,glycan array binding signal (z-score),[13],-0.548
